## Percent effect of library compounds

Each number is a percent effect as filed. The controls that fix the scale are not given in the record; negative values are as filed. The compounds are a random part of those screened.

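Assay of Toxoplasma gondii numbers, read through their beta-galactosidase reporter with a colour substrate. Compounds at 10 µM. The record gives no direction; the compounds picked for IC50 retests had high values, so higher reads as fewer parasites. About 67,000 compounds were tested under these conditions; 0.38% (about 260) showed 50% or more at least once.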

With O=C(NC1CCCC1)c1n[nH]c2c1CNCC2 the screen gave 15.04%. Result for O=C(NCCN1CCC(c2cccs2)CC1)c1ccc(F)cc1Cl was -0.1331%. CCc1cnc(NCCS(=O)(=O)CC(C)C)nc1 gave 7.356%. With Cc1nnc2n1CCN(C(=O)C1CCN(Cc3ccccc3)CC1)C2 the screen gave 0.9377%. For O=C(CCc1cccs1)N1CCCCC1Cn1cccn1 (stereo not shown) the result was 1.004%. COc1ccc(CNCC(C)Oc2ccccn2)cc1Br.Cl (stereo not shown) gave 0.3586%. Cc1ccsc1C(=O)NCc1cccnc1N(C)CCc1ccccn1 read -1.704%.

Cc1cccc(N2CC3(CCN(S(=O)(=O)c4cccs4)C3)CC2=O)c1 (stereo not shown) gave -22.74%. COc1ccc2nnc(CCCC(=O)NCc3cccn3C)n2n1 read -27.5%. For O=C(CNc1ccc(OC2CCOC2)cc1)NCc1cccs1 (stereo not shown) the result was 12.05%. [H][C@]12CC[C@]([H])(CN(Cc3ccc(F)cc3)C1)N(C(=O)Cc1cccnc1)C2 gave 5.245%. Result for O=C(c1cocn1)N1CCC2(CC1)CC(OCC1CC1)CO2 (stereo not shown) was 6.874%. With COc1ccc(C(C)Nc2ncc(C(N)=O)cc2Cl)c(OC)c1 (stereo not shown) the screen gave 3.794%. For c1ccc(OCCN2CCN(c3ncnc4[nH]ccc34)CC2)cc1 the result was -14.23%.

CNc1ncc(C(=O)N2CCC(CCc3ccccc3)CC2)cn1 read 17.73%. With O=C(c1cc2c(s1)CCN2C(=O)C1CC1)N1CCCC1 the screen gave -8.651%. With CCc1ccc(CNC(=O)N2CCN(Cc3cc(C)on3)CC2)s1 the screen gave -11.03%. Result for CC1CN(C(=O)C2(c3ccc(F)cc3F)CCOCC2)CCO1 (stereo not shown) was -4.099%. Result for CNC(=O)CN1CCC(c2nn(C)c(=O)n2-c2ccccc2)CC1 was 8.31%. For Cc1cnn(CC2CCCCN2C(=O)Cc2c(C)noc2Cl)c1 (stereo not shown) the result was -12.07%. Result for CS(=O)(=O)N1CCCC12CCCN(S(=O)(=O)c1ccc(F)c(F)c1)C2 (stereo not shown) was 0.9655%.

Cc1nc(CN2CCOC(c3ccc(Cl)cc3)C2)oc1C (stereo not shown) read 9.017%. O=C(O)C(F)(F)F.[H][C@]12CCCC(OC)[C@@]1([H])CN(Cc1csc(C)n1)C2 (stereo partly shown) read -2.24%. COCC(O)CN(C)C(=O)NCc1ccc(-c2ccn[nH]2)cc1 (stereo not shown) read 9.555%. With CC1(C)CNC(=O)c2nc(CCN3CCCCC3CO)[nH]c2C1 (stereo not shown) the screen gave 9.049%. With COCCCS(=O)(=O)N1CCN(Cc2cccn2C)CC1 the screen gave 13.86%. For O=C(CN1CCCC1Cn1cncn1)NCCC1=CCCCC1 (stereo not shown) the result was -2.083%. Result for CCc1cnc(NCC(c2cccnc2)N2CCOCC2)nc1 (stereo not shown) was 0.07299%.

Result for Cc1cn2c(n1)C(CNCC1=Cc3cc(Cl)ccc3OC1)CCC2 (stereo not shown) was 15.68%. Result for Cc1n[nH]cc1CNCC(O)c1ccc(F)c(F)c1.Cl (stereo not shown) was -1.983%. Result for Cc1cc(C(F)(F)F)nc(CNC(=O)CCn2cccn2)n1 was -5.348%. For O=C(O)C(c1ccc2[nH]ccc2c1)N1CCOCC1 (stereo not shown) the result was -0.1732%.

Some entries from above, unchanged:

Result for c1ccc(OCCN2CCN(c3ncnc4[nH]ccc34)CC2)cc1 was -14.23%.
Result for [H][C@]12CC[C@]([H])(CN(Cc3ccc(F)cc3)C1)N(C(=O)Cc1cccnc1)C2 was 5.245%.
Result for COc1ccc2nnc(CCCC(=O)NCc3cccn3C)n2n1 was -27.5%.

From ChEMBL document CHEMBL3988442, “University of Dundee, Small-Polar-MMV Screening Library” (2021).